# ± gives the standard deviation of the averaged measurements. This is a selection; strong and weak results do not stand in their true shares. Most entries show no effect beyond the scatter of the controls.
# Target: A0A0A0MT26|P13637 and related entries (UniProt P13637)
# Assay: NP40-soluble protein abundance relative to vehicle (solubility fold change) (ratio); higher = more soluble protein in presence of ATP
# Summary of the method: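 Crude Jurkat lysate, prepared by Dounce homogenisation, was exposed to eight concentrations from 0.1 to 10 mM for 10 min at room temperature and then 3 min at 37 °C. Solubilisation used 0.8% NP40 with benzonase for 60 min at 4 °C, followed by ultracentrifugation and TMT labelling of the supernatant for LC-MS/MS. After vsn normalisation of intensities, each value is the fold change against the detergent-processed vehicle within each replicate, across three independent experiments.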
structure (smiles),measurement,setting,value
Nc1ncnc2c1ncn2[C@@H]1O[C@H](COP(=O)(O)OP(=O)(O)OP(=O)(O)O)[C@@H](O)[C@H]1O [adenosine triphosphate],NP40-soluble protein abundance,concentration: 0.1mM,1.06 ± 0.029
same,NP40-soluble protein abundance,concentration: 0.5mM,1.03 ± 0.043
